Measurements: patent US6627631B1, “Pharmaceutical composition containing desoxypeganine for the treatment of alcoholism” (priority 1999, dated 2003)

Tested on: ethanol-preferring rats (strain going back to the Finnish AA rat line)
Assay: Voluntary alcohol consumption of genetic ethanol-preferring rats (free choice of 10% ethanol or water)
Format: in vivo
Details: female ethanol-preferring rats
Description: Influence of deoxypeganine HCl on the voluntary alcohol consumption of genetic ethanol-preferring rats.
The experimental animals were in each case 6 female rats of a strain which goes back to the Finnish AA rat line. The animals of this inbred strain prefer 10% alcohol as a drinking liquid if pure water is additionally offered to them (free choice).
The animals were kept individually in type 3 Makrolon cages at a room temperature of 23° C. and air changes nine times per hour. Dry feed granules (Altromin 1311; meal to which vitamins, minerals, amino acids and trace elements are added; manufacturer: Altromin
Spezialfutterwerke GmbH, Lage), drinking water and ethanol solution (10% v/v) were available to them in unrestricted amounts only during the dark phase from 20.00 hours to 08.00 hours, namely in special vessels which guarantee loss-free feeding and drinking. The amounts consumed were determined gravimetrically; the amounts of drink automatically and continuously with the aid of twelve weighing cells. […]
Table: Influence of deoxypeganine HCl on the ingestive behavior of female ethanol-prefering rats (n=6). The values determined during the three-day preliminary period in each case are in round brackets.

Q: What does the source list for `Cl.c1ccc2c(c1)CN1CCCC1=N2` [deoxypeganine HCl]?
A: Body weight, BW (n=6, 15 mg/kg orally): 215 ± 6.2 g; Body weight, BW (n=6, 30 mg/kg orally): 213 ± 4.9 g
